In the supplement of paper PMC4749390:
Counter-ions that a name gives are not always drawn. This is one part of the list. Repeats in this data set agree poorly, so a single value says little.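 JEG3 cells stably carry tetracycline-induced wild-type human LRH-1, a heavily sumoylated nuclear receptor. APOC3 and MUC1 are SUMO-sensitive transcripts, raised by SUMO-less LRH-1 or UBC9 knockdown, measured by RT-qPCR against TBP and DMSO controls. A robust Z-score above +2 or below -2 marked a primary hit before toxicity and TBP filtering.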

System: JEG3 expressing hLRH-1
Assay: MUC1 transcript change (ddCt vs TBP and DMSO), Z-score over library; higher = higher MUC1 expression
Settings: 10 µM; time (hr): 24

Row | SMILES | MUC1 transcript change (Z-score)
1 | NCCCC[C@H](N[C@@H](CCc1ccccc1)C(=O)O)C(=O)N1CCC[C@H]1C(=O)O [lisinopril] | -0.187
2 | CC1=C(C(=O)O)N2C(=O)[C@@H](NC(=O)[C@H](N)C3=CCC=CC3)C2SC1 (stereo partly drawn) [cephradine] | -1.24
3 | NC[C@@H]1O[C@H](O[C@H]2[C@@H](O)[C@H](O[C@@H]3[C@@H](O)[C@H](N)C[C@H](N)[C@H]3O[C@H]3O[C@H](CO)[C@@H](O)[C@H](O)[C@H]3N)O[C@@H]2CO)[C@H](N)[C@@H](O)[C@@H]1O [paromomycin sulfate] | 0.909
4 | CC[C@]1(O)C[C@H]2CN(CCc3c([nH]c4ccccc34)[C@@](C(=O)OC)(c3cc4c(cc3OC)N(C=O)[C@H]3[C@@](O)(C(=O)OC)[C@H](OC(C)=O)[C@]5(CC)C=CCN6CC[C@]43[C@@H]65)C2)C1 [vincristine sulfate] | -1.01
5 | COc1ccccc1OCC(O)CO (stereo not drawn) [guaifenesin] | -0.785
6 | CO[C@@H]1[C@@H](OC(N)=O)[C@@H](O)[C@H](Oc2ccc3c(O)c(NC(=O)c4ccc(O)c(CC=C(C)C)c4)c(=O)oc3c2C)OC1(C)C [novobiocin sodium] | 0.144
7 | CC/C(=C(/CC)c1ccc(O)cc1)c1ccc(O)cc1 [diethylstilbestrol] | 0.918
8 | COc1cc(C(=O)NCc2ccc(OCCN(C)C)cc2)cc(OC)c1OC [trimethobenzamide hydrochloride] | 0.53
9 | CN(C)CCCN1c2ccccc2CCc2ccc(Cl)cc21 [Clomipramine hydrochloride] | -0.489
10 | CN(N=O)C(=O)N[C@@H]1[C@@H](O)[C@H](O)[C@@H](CO)O[C@@H]1O [streptozosin] | 0.676
11 | Cc1cc(C(C)(C)C)c(O)c(C)c1CC1=NCCN1 [Oxymetazoline hydrochloride] | 0.325
12 | O=C(N[C@H](CO)[C@H](O)c1ccc([N+](=O)[O-])cc1)C(Cl)Cl [chloramphenicol] | -0.84
13 | CC1C(OC(=O)C(O)c2ccccc2)CCC(C)(C)N1C (stereo not drawn) [eucatropine hydrochloride] | 1.28
14 | CN(C(=O)CN(CCO)CC(=O)N(C)C(C)(C)Cc1ccccc1)C(C)(C)Cc1ccccc1 [oxethazaine] | 0.249
15 | CCC[C@@H]1C[C@@H](C(=O)N[C@@H]([C@H]2O[C@H](SC)[C@H](O)[C@@H](O)[C@H]2O)[C@H](C)Cl)N(C)C1 [clindamycin hydrochloride] | -0.534
16 | CCN(CC)CCNC(=O)c1cc(Cl)c(N)cc1OC [Metoclopramide hydrochloride] | 0.813
17 | CC(C)(CO)C(O)C(=O)NCCCO (stereo not drawn) [panthenol (dl)] | 0.503
18 | CCN(CC)CCc1nc(-c2ccccc2)no1 [oxolamine citrate] | -1.25
19 | Cc1cccc(C)c1OCC(C)N (stereo not drawn) [mexiletine hydrochloride] | 1.41
20 | Cc1cnc(C(=O)O)c[n+]1[O-] [acipimox] | 0.543
21 | C[C@@H]1CC2C3C[C@H](F)C4=CC(=O)C=C[C@]4(C)[C@@]3(F)[C@@H](O)C[C@]2(C)[C@@]1(O)C(=O)CO (stereo partly drawn) [flumethasone] | -1.17
22 | C[N+](C)(C)C[C@H](O)CC(=O)O [levocarnitine] | 1.29
23 | CCN(CCCCOC(=O)c1ccc(OC)c(OC)c1)C(C)Cc1ccc(OC)cc1 (stereo not drawn) [mebeverine hydrochloride] | 0.0222

Row | SMILES | MUC1 transcript change (Z-score)
24 | O=C(N/N=C/c1ccc([N+](=O)[O-])o1)c1ccc(O)cc1 [nifuroxazide] | -0.347
25 | N=C(N)N1CCc2ccccc2C1 [Debrisoquin sulfate] | 0.452
26 | COc1ccc2cc([C@H](C)C(=O)O)ccc2c1 [(+)naproxen] | 0.303
27 | NCCCC(=O)O | 0.342
28 | Cc1cc2c(s1)Nc1ccccc1N=C2N1CCN(C)CC1 [olanzapine] | -0.203
29 | COc1ccccc1N1CCN(CCCNc2cc(=O)n(C)c(=O)n2C)CC1 [Urapidil hydrochloride] | -0.777
30 | CCCCCCCCCCCCCCCCCCCCCCO [docosanol] | -2.42
31 | COc1ccc(O)cc1 [mequinol] | 0.479
32 | C[C@@H]1CC2C3CCC4=CC(=O)C=C[C@]4(C)[C@@]3(F)[C@@H](O)C[C@]2(C)[C@@]1(O)C(=O)CO (stereo partly drawn) [dexamethasone] | -0.615
33 | CCn1cc(C(=O)O)c(=O)c2cc(F)c(N3CCNCC3)cc21 [norfloxacin] | -0.295
34 | O=S(=O)(O)NC1CCCCC1 [cyclamic acid] | -0.656
35 | O=C(c1cccnc1)N1CCOCC1 [nicopholine] | -0.672
36 | CO/N=C(/C(=O)N[C@@H]1C(=O)N2C(C(=O)O)=C(CSc3nc(=O)c(O)nn3C)CS[C@H]12)c1csc(N)n1 [ceftriaxone sodium trihydrate] | -0.373
37 | C[C@](N)(Cc1ccc(O)c(O)c1)C(=O)O [L-alpha-Methyl DOPA] | 0.991
38 | CCCCN1CCCCC1C(=O)Nc1c(C)cccc1C (stereo not drawn) [bupivacaine hydrochloride] | 0.223
39 | CC[C@H](C)C(=O)O[C@H]1C[C@@H](C)C=C2C=C[C@H](C)[C@H](CC[C@@H]3C[C@@H](O)CC(=O)O3)[C@H]21 [lovastatin] | 0.753
40 | OCCN1CCN(CCCN2c3ccccc3Sc3ccc(C(F)(F)F)cc32)CC1 [Fluphenazine dihydrochloride] | -0.303
41 | CC(=O)O[C@]1(C(C)=O)CCC2C3C=C(C)C4=CC(=O)CCC4(C)C3CCC21C (stereo partly drawn) [megestrol acetate] | -0.392
42 | O=C(NCC(O)CO)c1c(I)c(C(=O)NCC(O)CO)c(I)c(N(CCO)C(=O)CO)c1I (stereo not drawn) [ioversol] | 0.695
43 | CC1(C)O[C@@H]2CC3C4C[C@H](F)C5=CC(=O)CC[C@]5(C)C4[C@@H](O)C[C@]3(C)[C@]2(C(=O)CO)O1 (stereo partly drawn) [flurandrenolide] | -1.38
44 | C[C@@H]1CC[C@H]2[C@@H](C)C(O)O[C@@H]3O[C@@]4(C)CC[C@@H]1[C@]32OO4 (stereo partly drawn) [artenimol] | -0.0586
45 | CC(C)NCC(O)COc1ccc(CCOCC2CC2)cc1 (stereo not drawn) [betaxalol hydrochloride] | 0.344
46 | CC(=O)[C@@]1(O)CC[C@H]2[C@@H]3C[C@H](C)C4=CC(=O)C=C[C@]4(C)[C@@]3(F)[C@@H](O)C[C@@]21C [fluorometholone] | -0.368

Row | SMILES | MUC1 transcript change (Z-score)
47 | CO/C(O)=C1\C(C)=NC(C)=C(C(=O)OCCN(C)Cc2ccccc2)C1c1cccc([N+](=O)[O-])c1 (stereo not drawn) [Nicardipine hydrochloride] | 0.398
48 | C[C@H](N[C@@H](CCc1ccccc1)C(=O)O)C(=O)N1CCC[C@H]1C(=O)O [enalaprilat] | 0.64
49 | COC1=C(OC)C(=O)C(CCCCCCCCCCO)=C(C)C1=O [idebenone] | -0.601
50 | N[C@@H]1[C@@H](O)[C@H](O)[C@@H](CO)O[C@H]1O [glucosamine hydrochloride] | 0.149
51 | CN1CCN(CCCN2c3ccccc3Sc3ccc(C(F)(F)F)cc32)CC1 [Trifluoperazine dihydrochloride] | 0.372
52 | C[C@@H]1C[C@H]2[C@@H]3CCC4=CC(=O)C=C[C@]4(C)[C@@]3(Cl)[C@@H](O)C[C@]2(C)[C@@]1(OC(=O)c1ccco1)C(=O)CCl [mometasone furoate] | 0.0887
53 | C/C=C(/C)C(=O)O[C@@H]1[C@H](OC(C)=O)[C@@]2(CO)C(CC1(C)C)C1=CCC3[C@@]4(C)CC[C@H](O[C@@H]5O[C@H](C(=O)O)[C@@H](O[C@@H]6O[C@H](CO)[C@@H](O)[C@H](O)[C@H]6O)[C@H](O)[C@H]5O[C@@H]5O[C@H](CO)[C@@H](O)[C@H](O)[C@H]5O)[C@](C)(CO)C4CC[C@@]3(C)[C@]1(C)C[C@H]2O (stereo partly drawn) [beta-escin] | -0.815
54 | CCC(C)CCCCC(=O)NC(CCN)C(=O)NC(C(=O)NC(CCN)C(=O)NC1CCNC(=O)C(C(C)O)NC(=O)C(CCN)NC(=O)C(CCN)NC(=O)C(CC(C)C)NC(=O)C(Cc2ccccc2)NC(=O)C(CCN)NC1=O)C(C)O (stereo not drawn) [polymyxin b sulfate] | 1.09
55 | CN(C)CCOc1ccc(/C(=C(/CCCl)c2ccccc2)c2ccccc2)cc1 [toremiphene citrate] | 0.666
56 | Oc1cccc(O)c1 [resorcinol] | 0.44
57 | CC[C@H]1OC(=O)[C@H](C)[C@@H](O[C@H]2C[C@@](C)(OC)[C@@H](O)[C@H](C)O2)[C@H](C)[C@@H](O[C@@H]2O[C@H](C)C[C@H](N(C)C)[C@H]2O)[C@](C)(O)C[C@@H](C)CN(C)[C@H](C)[C@@H](O)[C@]1(C)O [azithromycin] | 0.585
58 | Cc1cc(O)cc(C)c1Cl [chloroxylenol] | 0.122
59 | Cc1cccc(Nc2ccncc2S(=O)(=O)NC(=O)NC(C)C)c1 [torsemide] | 0.567
60 | O=C(NC(Cc1cc(O)nc2ccccc12)C(=O)O)c1ccc(Cl)cc1 (stereo not drawn) [rebamipide] | -0.372
61 | CCOC(=O)CC(=O)N1CCSC1COc1ccccc1OC (stereo not drawn) [moguisteine] | -1.51
62 | CC(N)CCCC(C)(C)O (stereo not drawn) [heptaminol hydrochloride] | -0.0384
63 | CN(C)CCCN1c2ccccc2Sc2ccccc21 [promazine hydrochloride] | -0.765
64 | C1N2CN3CN1CN(C2)C3 [methenamine] | 1.14
65 | CC(=O)Oc1c(C)c(C)c2c(c1C)CCC(C)(CCCC(C)CCCC(C)CCCC(C)C)O2 (stereo not drawn) [alpha-tochopheryl acetate] | 0.302
66 | CC1(C)O[C@@H]2CC3C4C[C@H](F)C5=CC(=O)C=CC5(C)C4C(O)CC3(C)[C@]2(C(=O)CO)O1 (stereo partly drawn) [flunisolide] | -1.49
67 | CCOC(=S)SSC(=S)OCC [dixanthogen] | -0.0693
68 | Clc1ccc(C(Cn2ccnc2)OCc2ccsc2Cl)c(Cl)c1 (stereo not drawn) [tioconazole] | 0.0237

Four structures out of the list, ordered by heavy-atom count, high to low.
Row | SMILES | MUC1 transcript change (Z-score)
3 | NC[C@@H]1O[C@H](O[C@H]2[C@@H](O)[C@H](O[C@@H]3[C@@H](O)[C@H](N)C[C@H](N)[C@H]3O[C@H]3O[C@H](CO)[C@@H](O)[C@H](O)[C@H]3N)O[C@@H]2CO)[C@H](N)[C@@H](O)[C@@H]1O [paromomycin sulfate] | 0.909
55 | CN(C)CCOc1ccc(/C(=C(/CCCl)c2ccccc2)c2ccccc2)cc1 [toremiphene citrate] | 0.666
45 | CC(C)NCC(O)COc1ccc(CCOCC2CC2)cc1 (stereo not drawn) [betaxalol hydrochloride] | 0.344
24 | O=C(N/N=C/c1ccc([N+](=O)[O-])o1)c1ccc(O)cc1 [nifuroxazide] | -0.347
